{"sequences": {"note": "By UniProt entry, the sequences of proteins in these tests, tags left out. Where a name states a change or a piece, a line headed by the entry shows the natural chain unless it says otherwise.", "UniProt O00167": "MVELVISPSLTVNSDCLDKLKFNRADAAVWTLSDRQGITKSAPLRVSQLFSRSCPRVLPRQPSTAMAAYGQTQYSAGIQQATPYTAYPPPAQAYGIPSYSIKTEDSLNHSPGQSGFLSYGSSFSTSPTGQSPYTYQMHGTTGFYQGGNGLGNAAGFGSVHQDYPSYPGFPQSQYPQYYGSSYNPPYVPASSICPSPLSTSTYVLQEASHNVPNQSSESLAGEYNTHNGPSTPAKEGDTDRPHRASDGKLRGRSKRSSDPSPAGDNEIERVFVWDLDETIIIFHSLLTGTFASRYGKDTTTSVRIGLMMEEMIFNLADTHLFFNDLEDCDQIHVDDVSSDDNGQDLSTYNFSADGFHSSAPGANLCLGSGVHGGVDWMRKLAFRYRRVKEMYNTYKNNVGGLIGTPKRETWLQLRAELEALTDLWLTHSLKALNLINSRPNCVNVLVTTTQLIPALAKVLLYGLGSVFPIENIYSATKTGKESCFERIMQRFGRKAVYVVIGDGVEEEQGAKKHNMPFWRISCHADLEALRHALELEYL"}, "source": "PubChem BioAssay AID488837", "about": "(National Center for Advancing Translational Sciences (NCATS), 2010)", "note": "Out of some 330,000 compounds screened, about 20 (0.006%) were called active. Inconclusive means that the source gave no clear call. Such entries were picked first, then a sample of the others. Calls come from the whole dose curve; as a rule, active = well fitted inhibition curve with a large enough effect; inconclusive = small, poorly fitted or top-dose-only effect, or effect the other way; inactive = flat fitted curve, though single readings scatter. Potencies of inconclusive entries are doubtful fits and often do not repeat. Potency is the fitted concentration of half-maximal effect.", "data": [{"molecular_target": "Protein phosphatase EYA2 (Homo sapiens) (UniProt O00167)", "experiment": "qHTS Assay for Inhibitors of the Phosphatase Activity of Eya2", "conditions": "recombinant Eya2, OMFP fluorescence dephosphorylation (OMFP is methylfluorescein phosphate)", "method_in_brief": "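Eya2 (0.2 uM) preincubated 10 min at ambient with compound, then OMFP substrate added at 50 uM; 10 min reaction in 50 mM HEPES pH 7.5, 50 mM NaCl, 5 uM MgCl2, 0.05% BSA, 1 mM DTT. Fluorescence read at Ex 485/Em 525 nm.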", "values": [{"smiles": "CN1CCN(C(c2cccnc2)c2ccc3cccnc3c2O)CC1", "note": "(stereo not given)", "Potency": "inactive"}, {"smiles": "O=C(NCCC(=O)N1CCN(c2ccccn2)CC1)c1ccc([N+](=O)[O-])cc1", "Potency": "inconclusive: 100 µM [inhibitor, single point]"}, {"smiles": "Cc1[nH]n(-c2ccccc2)c(=O)c1/C=C1/C=c2ccccc2=N1", "Potency": "inconclusive: 100 µM [inhibitor, single point]"}, {"smiles": "O=C(C[n+]1cc2ccccc2c2ccccc21)c1ccccc1", "Potency": "inactive"}, {"smiles": "CC(=O)NS(=O)(=O)c1ccc2sc(C)nc2c1", "Potency": "inconclusive: 100 µM [inhibitor, single point]"}, {"smiles": "C=CCN(CC=C)CC(O)Cn1c2ccccc2c2ccccc21", "note": "(stereo not given)", "Potency": "inconclusive: 22.4 µM [inhibitor, single point]"}, {"smiles": "Cc1ccc(O)c(NC(=O)c2cc(-c3ccccc3Cl)on2)c1", "Potency": "inconclusive: 20 µM [inhibitor, single point]"}, {"smiles": "Nc1nccc(-c2nn(-c3ccc(Cl)cc3)ccc2=O)n1", "Potency": "inconclusive: 100 µM [inhibitor, single point]"}, {"smiles": "CCn1c(=N)n(CCOc2ccc(OC)cc2)c2ccccc21", "Potency": "inconclusive: 7.94 µM [inhibitor, single point]"}, {"smiles": "O=C(Nc1ccccc1N1CCOCC1)c1ccc2c(c1)OCCO2", "Potency": "inconclusive: 25.1 µM [inhibitor, single point]"}, {"smiles": "CN(CCNC(=O)c1ccc(CS(=O)(=O)c2c(Cl)cccc2Cl)o1)CCc1ccccc1", "Potency": "inconclusive: 25.1 µM [inhibitor, single point]"}, {"smiles": "COc1cccc(NC(=O)c2cnc[nH]2)c1", "Potency": "inconclusive: 70.8 µM [inhibitor, partial curve, poor fit]"}, {"smiles": "N#CCC(=O)Nc1ccc(C(=O)OCC(=O)N=c2sccn2Cc2ccccc2Cl)cc1", "Potency": "inactive"}, {"smiles": "Cn1c(=O)c(NC2CCCCC2)c2c3c(cccc31)C(=O)c1ccccc1-2", "Potency": "inconclusive: 6.31 µM [activator, full curve]"}, {"smiles": "COc1ccc(F)c(CN(C)CC2CCCN(CCc3ccc(F)cc3)C2)c1", "note": "(stereo not given)", "Potency": "inactive"}, {"smiles": "Oc1c(C(Nc2nc3ccccc3s2)c2ccco2)ccc2cccnc12", "note": "(stereo not given)", "Potency": "inactive"}, {"smiles": "c1ccc(CCN2CN=C(Nc3nc4ccccc4s3)NC2)cc1", "Potency": "inconclusive: 282 µM [inhibitor, single point]"}, {"smiles": "CCCN1CCC(N2CCCC(C(=O)O)C2)CC1", "note": "(stereo not given)", "Potency": "inconclusive: 25.1 µM [inhibitor, single point]"}, {"smiles": "CCOc1ccc(S(=O)(=O)n2ccc(C)n2)cc1", "Potency": "inconclusive: 89.1 µM [inhibitor, single point]"}, {"smiles": "CC(C)CN1CCN(CCCc2ccccc2)C(CCO)C1", "note": "(stereo not given)", "Potency": "inconclusive: 79.4 µM [inhibitor, partial curve, poor fit]"}]}]}
